Source: PMC12158745
Results are given in words; binding and its absence hold for the method and conditions named. In cells and extracts the contact can be indirect. Some entries that bind do so weakly or less than the wild type. For some of these results: Sequences can lack the tags named with a protein. Blank lines part the entries; values can stand above or below the binder they belong to.

Sequences of proteins named here, by UniProt entry; tags and fusion partners are left off.
UniProt Q61184: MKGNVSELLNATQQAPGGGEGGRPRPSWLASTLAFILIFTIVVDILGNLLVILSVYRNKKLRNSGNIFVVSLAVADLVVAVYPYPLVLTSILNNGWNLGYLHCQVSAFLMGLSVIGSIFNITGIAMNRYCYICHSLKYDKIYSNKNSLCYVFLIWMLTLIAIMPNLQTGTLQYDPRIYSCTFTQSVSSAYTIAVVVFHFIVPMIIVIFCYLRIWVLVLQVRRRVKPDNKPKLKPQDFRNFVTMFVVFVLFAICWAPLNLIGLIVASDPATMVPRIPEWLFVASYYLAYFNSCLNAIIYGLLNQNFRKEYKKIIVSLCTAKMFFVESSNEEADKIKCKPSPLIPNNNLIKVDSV

Columns and labels:
[1] = molecular target: T1, 2xFlag-MTNR1B (mouse melatonin receptor MTNR1B) (mouse) (UniProt Q8CIQ6); test: co-IP; Flag-MTNR1A or Flag-MTNR1B co-transfected with HA-MRAP2 in HEK293 cells; lysate on Flag Nanoab Agarose beads, 2 h at 4°C, three washes with lysis buffer; blots with anti-HA or anti-Flag
T1 sequence: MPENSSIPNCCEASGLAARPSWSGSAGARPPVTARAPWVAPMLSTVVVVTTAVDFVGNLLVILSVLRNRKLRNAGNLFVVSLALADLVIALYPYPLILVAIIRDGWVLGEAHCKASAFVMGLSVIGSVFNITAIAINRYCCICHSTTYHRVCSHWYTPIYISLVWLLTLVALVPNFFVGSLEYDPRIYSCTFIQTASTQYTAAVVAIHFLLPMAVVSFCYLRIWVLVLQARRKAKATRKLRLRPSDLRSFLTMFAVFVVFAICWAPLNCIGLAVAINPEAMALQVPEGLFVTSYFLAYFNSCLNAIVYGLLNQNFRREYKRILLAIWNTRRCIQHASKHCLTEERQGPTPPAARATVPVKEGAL

[2] = molecular target: 2xFlag-MTNR1A (mouse melatonin receptor MTNR1A) (mouse) (UniProt Q61184); test: as above
Flag-MTNR1B-VF1 (mouse) = molecular target: T2, Flag-MTNR1B-VF1 (mouse) (UniProt Q8CIQ6); test: split reporter; BiFC with Venus fragments VF1 (on the receptors) and VF2 (on MRAP2), co-transfected cells fixed 24 h after transfection, confocal microscopy
T2 sequence: T1 sequence

Flag-MTNR1A-VF1 (mouse) = Flag-MTNR1A-VF1 (mouse) (UniProt Q61184); test: as above

binding [1]: binds
binding [2]: binds
B1: 3xHA-MRAP2 (mouse melanocortin receptor accessory protein 2) (protein, UniProt D3Z1Q2 1-207)
chain: MEMSAQRLASNRTSPQSPSNSDYTWEYEYYEIGPVSFEGLKAHKYSIVIGFWVGLAVFVIFMFFVLTLLTKTGAPHQDNAESSERRFRMNSFVSDFGKPLESDKVFSRQGNEESRSLFHCYINEVEHLDRVKVCHQTTAIDSDVHLQEASRSSGRPEEELARFMKFDIPNFVNTEQSSFGEDDLLISEAPVLLENKPVSQTSRIDLD

binding (Flag-MTNR1B-VF1 (mouse)): binds
binding (Flag-MTNR1A-VF1 (mouse)): binds
B2: Flag-MRAP2-VF2 (protein, UniProt D3Z1Q2 1-207)
chain: B1 chain
